Here are results for two compounds from paper PMC6820371, “Terbium-161 for PSMA-targeted radionuclide therapy of prostate cancer” (European Journal of Nuclear Medicine and Molecular Imaging, 2019).

Structures are written as SMILES.

The subject of the data set is PC-3 PIP tumors and kidneys of mice. The data set can be described thus: Dosimetry estimation for the in-vivo therapy. As to conditions: for Estimated mean specific absorbed dose to the PC-3 PIP tumors: tumors of 80 mm^3.

As for `O=C([O-])CN1CCN(CC(=O)[O-])CCN(CC(=O)NCC2CCC(C(=O)N[C@@H](Cc3ccc4ccccc4c3)C(=O)NCCCC[C@H](NC(=O)N[C@@H](CCC(=O)O)C(=O)O)C(=O)O)CC2)CCN(CC(=O)[O-])CC1.[177Lu+3]` (stereo partly drawn) [^177Lu-PSMA-617, reference compound], the “Mean specific absorbed dose to the kidneys” value is on record as 0.045 Gy/MBq and the “Estimated mean specific absorbed dose to the PC-3 PIP tumors” value was 3.90 Gy/MBq. In addition, where the note is “5.0 MBq/mouse”, the “Mean absorbed dose to the kidneys” value was 0.225 Gy and the “Mean absorbed dose to tumors” value was 20 Gy. Moreover, under “10 MBq/mouse”, the “Mean absorbed dose to the kidneys” value is 0.45 Gy and the “Mean absorbed dose to tumors” value is listed as 39 Gy.
For `O=C([O-])CN1CCN(CC(=O)[O-])CCN(CC(=O)NCC2CCC(C(=O)NC(Cc3ccc4ccccc4c3)C(=O)NCCCCC(NC(=O)NC(CCC(=O)O)C(=O)O)C(=O)O)CC2)CCN(CC(=O)[O-])CC1.[161Tb+3]` (stereo not drawn) [^161Tb-PSMA-617], the “Mean specific absorbed dose to the kidneys” value is recorded as 0.062 Gy/MBq and the “Estimated mean specific absorbed dose to the PC-3 PIP tumors” value is recorded as 5.34 Gy/MBq. Under “5.0 MBq/mouse”, the “Mean absorbed dose to the kidneys” value is given as 0.31 Gy and the “Mean absorbed dose to tumors” value is 27 Gy. For the same compound, where the note is “10 MBq/mouse”, the “Mean absorbed dose to the kidneys” value is 0.62 Gy and the “Mean absorbed dose to tumors” value was 53 Gy.
